For one molecule, binding results are on record in paper PMC6116281.

Chains of the proteins cited; added tags and fusions are not shown. Lines headed by an entry give the natural chain unless they say otherwise; changes in a name come on top.
UniProt P24814: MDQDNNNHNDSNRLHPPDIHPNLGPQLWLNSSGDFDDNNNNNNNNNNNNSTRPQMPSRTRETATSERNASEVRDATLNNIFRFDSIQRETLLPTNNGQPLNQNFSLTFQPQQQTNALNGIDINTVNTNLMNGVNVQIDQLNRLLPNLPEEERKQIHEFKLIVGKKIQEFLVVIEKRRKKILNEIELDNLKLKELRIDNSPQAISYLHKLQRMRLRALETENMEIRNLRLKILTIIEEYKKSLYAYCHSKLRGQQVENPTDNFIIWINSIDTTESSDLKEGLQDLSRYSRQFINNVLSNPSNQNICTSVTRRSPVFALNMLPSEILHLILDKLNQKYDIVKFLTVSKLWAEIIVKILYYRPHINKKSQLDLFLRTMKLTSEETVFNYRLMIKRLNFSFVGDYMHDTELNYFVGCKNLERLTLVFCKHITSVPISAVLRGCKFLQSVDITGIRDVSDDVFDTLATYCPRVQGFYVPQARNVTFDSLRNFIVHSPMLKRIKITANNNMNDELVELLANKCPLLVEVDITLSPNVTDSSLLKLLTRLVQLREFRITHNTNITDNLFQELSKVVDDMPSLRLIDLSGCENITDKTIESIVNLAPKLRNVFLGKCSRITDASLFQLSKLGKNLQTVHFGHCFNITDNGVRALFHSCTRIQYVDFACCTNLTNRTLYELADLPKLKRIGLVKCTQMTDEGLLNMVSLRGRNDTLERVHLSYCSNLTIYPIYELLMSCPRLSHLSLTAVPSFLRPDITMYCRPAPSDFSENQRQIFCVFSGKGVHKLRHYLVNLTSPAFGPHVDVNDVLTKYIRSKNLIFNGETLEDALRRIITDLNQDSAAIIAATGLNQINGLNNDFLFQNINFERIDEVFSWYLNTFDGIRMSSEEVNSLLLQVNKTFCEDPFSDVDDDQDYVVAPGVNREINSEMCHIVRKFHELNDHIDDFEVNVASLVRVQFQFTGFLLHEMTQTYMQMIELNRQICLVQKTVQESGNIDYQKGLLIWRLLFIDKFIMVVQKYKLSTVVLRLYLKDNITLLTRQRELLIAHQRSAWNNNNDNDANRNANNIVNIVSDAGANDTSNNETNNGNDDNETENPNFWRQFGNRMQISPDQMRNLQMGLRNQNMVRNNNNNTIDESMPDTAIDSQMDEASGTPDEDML

In the test the target is grr1∆F∆L mutant, Gal4 binding domain bait (S. cerevisiae) (UniProt P24814). The test is described as follows: two-hybrid; Gal4 yeast two-hybrid in PJ69-4a cells; Med13 fragment on the Gal4 activating domain (prey), bait on the binding domain; growth on -TRP, -LEU, -HIS, -ADE medium (dual HIS3 and ADE2 reporter genes). (In general: In a reporter assay the amount or activity of a reporter protein is the signal.)

These are yes or no findings as the source states them, for the method shown. Tags and fused reporters may be left off the sequences shown.

B1: Gal4 activating domain Med13^571-650 fusion protein (domain or fragment, UniProt P38931 571-650)
chain: KRKYLDIPIDEMTLPTSPLYMDPGAPLPVETPRDRRKSVFAPLNFNPIIENNVDNKYKSGGKFSFSPLQKEEALNFDISM
In the case of B1, the binding entry is “no binding”.
